This is an account of results in article doi:10.1101/040410.

By UniProt entry, the sequences of proteins in these tests, tags left out. Where a name states a change or a piece, a line headed by the entry shows the natural chain unless it says otherwise. Residues count along the entry.
UniProt P01135, 24-160: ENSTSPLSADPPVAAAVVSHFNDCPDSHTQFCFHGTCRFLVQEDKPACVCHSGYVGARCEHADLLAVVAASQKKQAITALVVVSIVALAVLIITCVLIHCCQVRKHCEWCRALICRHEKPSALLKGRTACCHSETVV
UniProt P01135, whole entry, looked up, stated change not applied: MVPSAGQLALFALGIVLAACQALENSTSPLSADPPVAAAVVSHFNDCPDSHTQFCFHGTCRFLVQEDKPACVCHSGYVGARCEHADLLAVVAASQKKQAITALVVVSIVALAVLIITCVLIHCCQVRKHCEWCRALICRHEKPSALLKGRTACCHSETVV

Results are given in words; binding and its absence hold for the method and conditions named. In cells and extracts the contact can be indirect. Some binding calls cover weakened binding; strength is not graded here. For part of these data: Sequences can lack the tags named with a protein.

Assay in all cases: co-IP
The target in assay [1] is pro/HA-TGFα wild type (HA-tagged transmembrane precursor of transforming growth factor alpha) (UniProt P01135).
In another assay the target is pro/HA-TGFα V160G mutant (UniProt P01135).
The next assay deals with T1, HA-Vangl2 (UniProt Q91ZD4).
T1 sequence: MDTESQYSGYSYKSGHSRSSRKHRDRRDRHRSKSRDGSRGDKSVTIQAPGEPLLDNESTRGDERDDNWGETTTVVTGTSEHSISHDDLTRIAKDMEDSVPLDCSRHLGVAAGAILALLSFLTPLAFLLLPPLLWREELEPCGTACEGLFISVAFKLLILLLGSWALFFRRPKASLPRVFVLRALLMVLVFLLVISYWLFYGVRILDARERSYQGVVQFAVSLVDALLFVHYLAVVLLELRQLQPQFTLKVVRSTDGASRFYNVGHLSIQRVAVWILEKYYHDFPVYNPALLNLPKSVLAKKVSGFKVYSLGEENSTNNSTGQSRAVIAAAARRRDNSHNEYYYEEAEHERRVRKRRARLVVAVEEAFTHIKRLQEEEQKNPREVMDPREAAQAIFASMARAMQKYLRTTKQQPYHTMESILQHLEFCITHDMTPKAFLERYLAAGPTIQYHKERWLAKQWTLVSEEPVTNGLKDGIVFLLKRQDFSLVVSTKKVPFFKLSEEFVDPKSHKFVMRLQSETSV

B1: Cornichon-1 (protein, UniProt O95406 1-144)
chain: MAFTFAAFCYMLALLLTAALIFFAIWHIIAFDELKTDYKNPIDQCNTLNPLVLPEYLIHAFFCVMFLCAAEWLTLGLNMPLLAYHIWRYMSRPVMSGPGLYDPTTIMNADILAYCQKEGWCKLAFYLLAFFYYLYGMIYVLVSS
Turning to B1, the binding result in assay [1] is given as “binds”; with pro/HA-TGFα V160G mutant it was “binds”; with HA-Vangl2, “no binding”.
